Results as given in US12168659B2, “Thioamide derivative and preparation method and application thereof” (Yunbaiyao Zhengwu Science and Technology (Shanghai) Co., …, priority 2022, dated 2024).
Some entries share one result that the patent states for a list of compounds.

Experiments:
[1] = test system: MEK1; assay: Raf-MEK-ERK cascade kinase assay using recombinant protein (MEK1); type: biochemical; conditions: MEK1 and MEK2, relative to Trametinib
Method: Experimental purpose: The inhibitory activity of the compounds on MEK1 and MEK2 was measured by performing a Raf-MEK-ERK cascade kinase assay using recombinant protein.
Experimental method: 2 mg of dephosphorylated myelin basic protein (MBP) was dispersed in a 0.2 M sodium carbonate aqueous solution (pH=9.4). The mixed solution was then coated onto an enzyme-linked immunosorbent assay (ELISA) plate (U-shaped bottom plate) and left to stand overnight at 4° C. […] Compound solutions with serial concentrations were tested in triplicate wells. A mixture of 2 ng of inactivated MEK1 (or 4 ng of MEK2) and 50 ng of inactivated ERK2 was dissolved in a buffer solution (20 mM MOPS [pH=7.4], 0.1% 2-mercaptoethanol, 0.1% BSA) at room temperature, and then treated with the above serial solutions on a flat plate. The plate was covered with 1% bovine serum albumin (BSA) and pre-incubated for 10 minutes. […] After incubation at 30° C. for 30 minutes, phosphorylation of MBP by ERK was detected using peroxidase-labeled anti-phosphorylated MBP antibodies. Data curves were plotted and half maximal inhibitory concentration (IC50) values were calculated using XLFit.

[2] = test system: human malignant melanoma cells (A375); assay: Anti-proliferative activity, CCK-8 assay, A375; type: cell-based; conditions: all five cancer cells tested (A375, HCT-15, A549, HCT116, PC-3)
Method: Experimental procedure: Sample solutions with a concentration of 20 μM were prepared and serially diluted 5-fold downwards to obtain 10 concentrations: 20000 nM, 4000 nM, 800 nM, 160 nM, 32 nM, 6.4 nM, 1.28 nM, 0.256 nM, 0.0512 nM and 0.01024 nM. The sample solutions were incubated with the above cell lines for 72 h. Then 10 μL of a CCK-8 solution was then added to each well, followed by a further 2 hours incubation. An optical density (OD) value was measured at 450 nm using a fully automated microplate reader. Data were processed using GraphPad Prism 7 to calculate IC50.

Row | SMILES | Activity as MEK1/2 inhibitors compared to Trametinib [1] | In vitro cancer cell proliferation inhibitory activity compared to Trametinib [2]
1 | CC(=S)Nc1cccc(-n2c(=O)n(C)c(=O)c3c(Nc4ccc(I)cc4F)n(C)c(=O)c(C)c32)c1 [Compound 1] | more than twice that of Trametinib | higher in vitro cancer cell proliferation inhibitory activity than the reference compound, Trametinib
2 | CC(=S)Nc1cccc(-n2c(=O)n(C3CC3)c(=O)c3c(Nc4ccc(I)cc4F)n(C)c(=O)c(C)c32)c1 [Compound 2] | more than twice that of Trametinib | higher in vitro cancer cell proliferation inhibitory activity than the reference compound, Trametinib
3 | CC(=S)Nc1cccc(-n2c(=O)n(C(C)C)c(=O)c3c(Nc4ccc(I)cc4F)n(C)c(=O)c(C)c32)c1 [Compound 3] | more than twice that of Trametinib | higher in vitro cancer cell proliferation inhibitory activity than the reference compound, Trametinib
4 | CC(=S)Nc1cccc(-n2c(=O)n(C3CCCC3)c(=O)c3c(Nc4ccc(I)cc4F)n(C)c(=O)c(C)c32)c1 [Compound 4] | more than twice that of Trametinib | higher in vitro cancer cell proliferation inhibitory activity than the reference compound, Trametinib
5 | CCC(=S)Nc1cccc(-n2c(=O)n(C3CC3)c(=O)c3c(Nc4ccc(I)cc4F)n(C)c(=O)c(C)c32)c1 [Compound 5] |  | higher in vitro cancer cell proliferation inhibitory activity than the reference compound, Trametinib
6 | Cc1c(=O)n(C)c(Nc2ccc(I)cc2F)c2c(=O)n(C3CC3)c(=O)n(-c3cccc(NC(=S)C4CC4)c3)c12 [Compound 6] | more than twice that of Trametinib | higher in vitro cancer cell proliferation inhibitory activity than the reference compound, Trametinib
7 | Cc1c(=O)n(C)c(Nc2ccc(I)cc2F)c2c(=O)n(C3CC3)c(=O)n(-c3cccc(NC(=S)C(C)C)c3)c12 [Compound 7] | more than twice that of Trametinib | higher in vitro cancer cell proliferation inhibitory activity than the reference compound, Trametinib
8 | Cc1c(=O)n(C)c(Nc2ccc(I)cc2F)c2c(=O)n(C3CC3)c(=O)n(-c3cccc(NC(=S)CO)c3)c12 [Compound 8] | more than twice that of Trametinib | higher in vitro cancer cell proliferation inhibitory activity than the reference compound, Trametinib
9 | CC(=S)Nc1ccc(F)c(-n2c(=O)n(C3CC3)c(=O)c3c(Nc4ccc(I)cc4F)n(C)c(=O)c(C)c32)c1 [Compound 9] | more than twice that of Trametinib | higher in vitro cancer cell proliferation inhibitory activity than the reference compound, Trametinib
10 | CC(=S)Nc1cc(F)cc(-n2c(=O)n(C3CC3)c(=O)c3c(Nc4ccc(I)cc4F)n(C)c(=O)c(C)c32)c1 [Compound 10] | more than twice that of Trametinib | higher in vitro cancer cell proliferation inhibitory activity than the reference compound, Trametinib
11 | CC(=S)Nc1cc(-n2c(=O)n(C3CC3)c(=O)c3c(Nc4ccc(I)cc4F)n(C)c(=O)c(C)c32)ccc1F [Compound 11] | more than twice that of Trametinib | higher in vitro cancer cell proliferation inhibitory activity than the reference compound, Trametinib
